Experimental data published in publication PMC6377682.

By UniProt entry, the sequences of proteins in these tests, tags left out.
UniProt P62140: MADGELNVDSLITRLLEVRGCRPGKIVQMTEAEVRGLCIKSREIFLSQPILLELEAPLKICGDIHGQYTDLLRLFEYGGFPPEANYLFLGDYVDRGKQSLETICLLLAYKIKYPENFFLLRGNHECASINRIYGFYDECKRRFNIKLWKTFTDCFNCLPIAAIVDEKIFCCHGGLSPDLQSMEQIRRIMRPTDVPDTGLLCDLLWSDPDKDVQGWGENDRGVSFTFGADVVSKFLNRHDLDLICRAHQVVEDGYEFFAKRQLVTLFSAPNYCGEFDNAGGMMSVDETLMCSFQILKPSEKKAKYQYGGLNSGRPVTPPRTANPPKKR
UniProt P36873: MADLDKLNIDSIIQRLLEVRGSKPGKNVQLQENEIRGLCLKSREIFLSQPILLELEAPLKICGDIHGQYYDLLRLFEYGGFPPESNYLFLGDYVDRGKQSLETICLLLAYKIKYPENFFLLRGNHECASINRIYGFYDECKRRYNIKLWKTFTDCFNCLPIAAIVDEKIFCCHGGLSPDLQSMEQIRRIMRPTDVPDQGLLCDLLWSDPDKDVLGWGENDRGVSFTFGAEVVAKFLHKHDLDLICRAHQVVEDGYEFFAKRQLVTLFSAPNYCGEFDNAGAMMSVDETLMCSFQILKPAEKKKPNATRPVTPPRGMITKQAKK

What was measured:
[1] = biological target: T1, Strep-HA tagged ASPP2 (human) (UniProt Q13625); assay: affinity purification with mass spectrometry; Strep-HA tagged bait stably expressed in HEK Flp-In 293 T-REx cells; Strep-Tactin sepharose, HNN lysis buffer (50 mM HEPES pH 7.5, 150 mM NaCl, 50 mM NaF, 0.5% Igepal CA-630), biotin elution; quantitative LC-MS/MS, three biological replicates
T1 sequence: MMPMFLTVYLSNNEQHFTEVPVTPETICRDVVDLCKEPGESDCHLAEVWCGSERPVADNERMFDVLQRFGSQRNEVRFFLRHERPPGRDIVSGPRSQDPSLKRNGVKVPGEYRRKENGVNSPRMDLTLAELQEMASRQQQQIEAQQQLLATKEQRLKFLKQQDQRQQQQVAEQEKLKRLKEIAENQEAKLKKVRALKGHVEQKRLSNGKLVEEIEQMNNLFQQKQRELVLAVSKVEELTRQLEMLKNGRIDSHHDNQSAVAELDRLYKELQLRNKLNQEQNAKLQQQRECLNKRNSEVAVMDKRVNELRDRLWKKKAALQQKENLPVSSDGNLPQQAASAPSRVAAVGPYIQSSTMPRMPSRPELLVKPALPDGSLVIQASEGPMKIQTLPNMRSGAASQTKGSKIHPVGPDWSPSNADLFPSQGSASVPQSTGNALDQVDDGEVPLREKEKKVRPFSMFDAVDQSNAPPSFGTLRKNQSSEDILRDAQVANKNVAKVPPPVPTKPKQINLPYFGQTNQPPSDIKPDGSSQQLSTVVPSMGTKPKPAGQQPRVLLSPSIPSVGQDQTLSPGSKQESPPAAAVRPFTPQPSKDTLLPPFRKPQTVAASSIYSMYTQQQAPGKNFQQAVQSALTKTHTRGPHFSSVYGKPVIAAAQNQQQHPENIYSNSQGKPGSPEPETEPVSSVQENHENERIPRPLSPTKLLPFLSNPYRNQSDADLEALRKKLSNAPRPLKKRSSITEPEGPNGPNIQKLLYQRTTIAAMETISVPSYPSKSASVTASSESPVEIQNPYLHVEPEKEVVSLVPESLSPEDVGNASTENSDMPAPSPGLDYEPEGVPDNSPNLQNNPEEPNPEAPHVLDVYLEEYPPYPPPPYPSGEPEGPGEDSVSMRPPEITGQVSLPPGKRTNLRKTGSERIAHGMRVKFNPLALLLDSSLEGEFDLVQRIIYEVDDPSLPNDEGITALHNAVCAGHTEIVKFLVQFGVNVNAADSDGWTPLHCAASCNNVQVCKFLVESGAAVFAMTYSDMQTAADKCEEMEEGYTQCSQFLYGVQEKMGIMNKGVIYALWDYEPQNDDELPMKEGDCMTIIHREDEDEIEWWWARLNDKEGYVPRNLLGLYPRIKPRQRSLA

[2] = biological target: T2, Strep-HA tagged ASPP2^KVK (ASPP2^D1091K/E1092V/E1094K) (human) (UniProt Q13625); assay: as above
T2 sequence: T1 sequence with D1091K, E1092V, E1094K

Substance: endogenous PP1β of HEK293T cells (from UniProt P62140 1-327) (enzyme)
- binding [1]: binds
- binding [2]: binds

Substance: endogenous PP1γ1 of HEK293T cells (from UniProt P36873 1-323) (enzyme)
- binding [1]: binds
- binding [2]: binds

Positions count from the first letter of the chain named. Results are given in words; binding and its absence hold for the method and conditions named. In cells and extracts the contact can be indirect. A yes stands for co-enrichment or nearness to the bait. Other partners may have been found. Sequences can lack the tags named with a protein.
